Test results: US9464049B2, “Indole-carboxamides” (Hoffmann-La Roche Inc., priority 2013, dated 2016)

Legend:
[1] = system: human embryonic stem cell derived neural stem cells (NSCs); assay: Neural stem cell proliferation assay (neurogenesis assay, ATP levels by CellTiterGlo); assay type: cell-based; conditions: 96 h, compound concentration at which 150% activity of control (100%) is reached, NSC proliferation by ATP (CellTiterGlo) after 4 days incubation, dose response 8 μM to 8 nM
Procedure: Neural Stem Cell Proliferation Assay
Neurogenic properties of small molecules are determined based on the proliferation of human embryonic stem cell derived neural stem cells (NSCs) which were derived via a dual smad inhibition as previously described (Chambers, S. M., et al., Highly efficient neural conversion of human ES and iPS cells by dual inhibition of SMAD signaling, Nature biotechnology, 2009. 27(3): p. 275-80.)
Compounds respond is measured by the increase in cells based on ATP levels (Promega:CellTiterGlo®) after an incubation period of 4 days.
NSCs are thawed and expanded over 3 passages. On the 14th day, NSCs are seeded in Polyornithin/Laminin coated 384 well plates at a cell density of 21,000 cells/cm^2 in a media volume of 38 μl.
4 hours after cell seeding, compound solutions are added at a volume of 2 μl. […]
After 4 days incubation at 37° C., 5% CO2, the amount of ATP per well is quantified. […] ATP is quantified by using the Promega CellTiterGlo® kit. […] The luminescence signal is proportional to the ATP content.
The value of negative (neutral) control is determined for each assay plate by taking the average of 16 negative control wells. The neurogenic compound response is calculated for each compound as (compound/Negative Control)*100.
The values of EC150 from the dose response curve are determined for each test compound. […]

Compound | EC (150% of control) [1] [µM] | melting point [°C]
Cc1cc(-c2cc(C#N)cc3cc(C(N)=O)n(C)c23)ccc1F [Example 65, 5-Cyano-7-(4-fluoro-3-methylphenyl)-1-methylindole-2-carboxamide] | 0.18 | 220
Cn1c(C(N)=O)cc2cc(C#N)cc(-c3ccnc(Cl)c3)c21 [Example 69, 7-(2-Chloropyridin-4-yl)-5-cyano-1-methylindole-2-carboxamide] | 0.13 | 209
